PubChem BioAssay AID504786 – Drosophila RNAi Screening Center | 2011

Test: 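Knock-downs reducing HIF reporter induction by the iron chelator DFO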 (primary screen)
Cells: Drosophila S2 cells with a stable HIF luciferase reporter
Reagent: long dsRNA against Drosophila genes, about 0.2 µg dsRNA per well of a 384-well plate
Timing: three days of knock-down, then 20 h of DFO before reading
Challenge: desferrioxamine (DFO) at 100 µM, an iron chelator that mimics hypoxia, for 20 h
Measurement: 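Firefly luciferase driven by the mouse ldh-a hypoxia-response element, measured after 20 h of 100 µM DFO; z-scores per plate, higher means more signal lost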
Scale: z-score: higher = stronger loss of HIF reporter signal
The screen tested about 21,000 reagents; this is a random part of those with a known target gene and a result. 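Primary screen; positive scores mean lost reporter signal, so the sign may be inverted from the usual convention.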 Names joined by + are all predicted targets of the reagent.

no.	Gene	dsRNA	z-score, replicate 1	z-score, replicate 2
1	CG6118	DRSC15968	-0.3	0.2
2	Rint1 (RAD50 interactor 1)	DRSC11010	-0.5	-1.1
3	sm (smooth)	DRSC05795	-0.2	-0.3
4	sm (smooth)	DRSC07686	-0.3	-0.8
5	wdp (windpipe)	DRSC04367	-0.3	-0.7
6	lms (lateral muscles scarcer)	DRSC06387	-0.3	-0.2
7	CG7573	DRSC10884	-0.3	-0.7
8	DnaJ-1 (DnaJ-like-1)	DRSC11145	-0.2	0.2
9	sunz (sungrazer)	DRSC12559	-0.2	-0.1
10	CG5412	DRSC15796	-0.3	0
11	Mst27D (Male specific transcript 27D)	DRSC00967	1.7	1.2
12	CG12118	DRSC17813	-0.1	-0.3
13	fbp (fructose-1,6-bisphosphatase)	DRSC02077	-0.3	-0.4
14	CG13170	DRSC06298	0	0
15	Sec61alpha (Sec61 alpha subunit)	DRSC03256	3.7	2.1
16	CG42542	DRSC15549	0.2	0.2
17	CG11664	DRSC18650	-0.4	-0.4
18	CG7079	DRSC16192	-0.5	-0.3
19	CG13578	DRSC04214	-0.3	0
20	meru	DRSC09400	0.7	0.1
21	meru	DRSC09899	0.4	0.3
22	meru	DRSC10215	-0.3	-0.4
23	TMEM216 (Transmembrane protein 216)	DRSC16378	-0.2	-0.5
24	CG1924	DRSC19823	0	0.1
25	CG31678	DRSC02618	-0.3	-0.1
26	CG31678	DRSC02619	-0.3	-0.3
27	CG17784	DRSC15268	0	-0.3
28	CG9114	DRSC20155	-0.3	-0.9
29	mIF3 (mitochondrial translation initiation factor 3)	DRSC06290	-0.3	-0.5
30	Trf2 (TATA box binding protein-related factor 2)	DRSC18727	-0.5	0.5
31	mRpL12 (mitochondrial ribosomal protein L12)	DRSC10467	0.6	0.3
32	tim (timeless)	DRSC00841	-0.3	-0.3
33	yata	DRSC15408	-0.3	0.1
34	CG8960	DRSC08612	-0.2	-0.4
35	RpS20 (Ribosomal protein S20)	DRSC16836	3.8	5.8
36	lva (lava lamp)	DRSC18403	-0.1	-0.1
37	Sec16 (Secretory 16)	DRSC19788	-0.4	-0.4
38	Sec16 (Secretory 16)	DRSC19858	-0.2	-0.4
39	CG8405	DRSC05599	-1.2	-0.3
40	CG8405	DRSC07166	-0.4	-0.1
41	CstF50 (Cleavage stimulation factor 50 kD subunit)	DRSC15434	-0.3	-0.3
42	CG10694	DRSC14263	-0.3	-0.4
43	Snp (Snipper)	DRSC04524	-0.2	-0.3
44	CG14079	DRSC10083	-0.3	-0.1
45	PPYR1 (Protein phosphatase Y regulator 1)	DRSC19612	-0.2	-0.4
46	Ir60b (Ionotropic receptor 60b)	DRSC04217	-0.2	-0.2
47	CG2930	DRSC17730	-0.2	-0.3
48	CG9590	DRSC16506	-0.3	-0.3
49	Eip74EF (Ecdysone-induced protein 74EF)	DRSC10613	1.4	3.3
50	Eip74EF (Ecdysone-induced protein 74EF)	DRSC11160	-0.5	-1
51	ND-B22 (NADH dehydrogenase (ubiquinone) B22 subunit)	DRSC03193	-0.3	0.3
52	CG17047	DRSC06648	-0.4	-0.1
53	CG10338	DRSC02039	-0.3	0
54	Jhbp13 (Juvenile hormone binding protein 13)	DRSC02913	-0.2	-0.3
55	CG8272	DRSC07134	-0.4	0
56	CG17974	DRSC04299	-0.3	-0.5
57	Charon	DRSC00679	-0.1	0.6
58	mira (miranda)	DRSC16998	-0.2	-0.4
59	DCTN3-p24 (Dynactin 3, p24 subunit)	DRSC04592	-0.3	-0.4
60	krimp (krimper)	DRSC06578	-0.3	-0.3
61	form3 (formin 3)	DRSC10195	-0.4	-0.7
62	form3 (formin 3)	DRSC10297	-0.2	-0.9
63	form3 (formin 3)	DRSC11024	-0.4	-0.7
64	CG17026	DRSC10237	-0.3	-0.3
65	ph-d (polyhomeotic distal)	DRSC18819	4	0.9
66	GstZ2 (Glutathione S transferase Z2)	DRSC16479	-0.4	-0.4
67	SA2 (Stromalin 2)	DRSC08385	-0.3	-0.6
68	Ctr1B + Poxm	DRSC16245	0.1	0.5
69	CG13698	DRSC10047	-0.3	-0.6
70	Npc2b (Niemann-Pick type C-2b)	DRSC15464	-0.1	-0.2
71	CG17717	DRSC18130	-0.3	-0.7
72	spz3 (spatzle 3)	DRSC02391	-0.4	-0.5
73	spz3 (spatzle 3)	DRSC03008	-0.4	-0.4
74	CG34196	DRSC05704	-0.6	-0.2
75	CG17917	DRSC12570	-0.3	-0.1
76	CG31055	DRSC13832	-0.2	-0.4
77	Daao1 (D-amino acid oxidase 1)	DRSC06131	-0.2	-0.4
78	CG7142	DRSC16204	-0.7	-0.2
79	CG13634	DRSC14635	0.4	1.2
80	CG12012	DRSC08220	-0.3	-0.6
81	CLS (Cardiolipin synthase)	DRSC15642	-0.8	-0.8
82	GCS1 (Glucosidase 1)	DRSC19744	-0.2	-0.7
83	CG14567	DRSC11728	-0.3	-0.2
84	CG11417	DRSC18581	0.6	2
85	ImpE3 (Ecdysone-inducible gene E3)	DRSC16716	0.4	0.6
86	CG14292	DRSC14772	-0.3	0.1
87	Ubr3 (Ubr3 ubiquitin ligase)	DRSC17987	-0.1	-0.5
88	Ubr3 (Ubr3 ubiquitin ligase)	DRSC17997	-0.1	0
89	ptc (patched)	DRSC05117	-0.1	-0.3
90	ptc (patched)	DRSC07669	-0.2	-0.5
91	Fdh (Formaldehyde dehydrogenase)	DRSC16670	-0.3	-0.1
92	Nadk1a (NAD kinase 1a)	DRSC05431	-0.2	-0.2
93	Nadk1a (NAD kinase 1a)	DRSC06963	-0.5	-0.7
94	CG15153	DRSC02454	-0.2	0.3
95	e(y)2 (enhancer of yellow 2)	DRSC19640	-0.3	0.7
96	CG33981 + fab1	DRSC07412	-0.3	-0.5
97	trx (trithorax)	DRSC17089	1.1	0.7
98	slp1 (sloppy paired 1)	DRSC00835	-0.4	-0.7
99	cert (ceramide transfer protein)	DRSC09674	-0.2	-0.2
100	lama (lamina ancestor)	DRSC11361	-0.3	-0.3
101	I-2 (Inhibitor-2)	DRSC11194	-0.6	-1.1
102	ND-B17.2 (NADH dehydrogenase (ubiquinone) B17.2 subunit)	DRSC00577	-0.1	-0.2
103	CG11095	DRSC19375	-0.2	-0.5
104	CG40005 (retired record) + cta	DRSC03763	-0.6	-0.2
105	CG17683	DRSC21160	-0.4	-0.5
106	tap (target of Poxn)	DRSC11402	-0.5	-0.4
